PubChem BioAssay AID504791 – Drosophila RNAi Screening Center | 2011
The deposit covers about 23,000 reagents; shown is a random part of those with a known target gene and a result. In the full data, 199 (0.86%) were called active. 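Plate-scaled ratios behind the calls are not deposited; printed light signals are raw; many rows marked increased or decreased are still called inactive.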 Entries without a mark were called inactive. A plus sign joins genes that one reagent is predicted to hit. Reagent sequences are not shown. Not stated in the record: the direction of the score.

Aim: 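Genes of the fly required for silencing by miRNA, siRNA or endo-siRNA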 (primary screen)
System: Drosophila S2-derived reporter cells
Reagents: long dsRNA against Drosophila genes, about 150-250 ng dsRNA per well (siRNA assay); about 80-120 ng (miRNA assay)
Timing: about 5 days (siRNA assay); about 4 days (miRNA assay)
Conditions: copper sulfate induction of reporters: 25 µM (siRNA assay); 200 mM stated (miRNA assay), 1-2 days before reading
Measured: 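Dual luciferase assay: Renilla to firefly signal ratio in each well, scaled to the mean ratio of its plate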
Active means: 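First-pass picks had plate-scaled ratios over 1.5 for the siRNA assay, over 1.6 for the miRNA assay, or under 0.6; two distinct dsRNAs had to score alike on retest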

gene knocked down | amplicon | stable siRNA reporter change | miRNA reporter change | stable assay Renilla, run 1 (luminescence) | stable assay firefly, run 1 (luminescence)
CG32762 | DRSC18298 | – | – | 5103 | 4.33e5
CG7968 | DRSC01903 | – | – | 8290 | 3.74e5
CG16964 | DRSC02546 | – | – | 7090 | 5.88e5
CG5026 | DRSC10470 | – | – | 8662 | 4.26e5
CG4842 | DRSC10453 | – | – | 7671 | 5.91e5
CG13280 | DRSC02253 | – | – | 6871 | 2.98e5
HP1b | DRSC18418 | – | – | 5140 | 3.31e5
dmrt11E | DRSC19715 | – | – | 4487 | 3.59e5
blo | DRSC05937 | – | – | 7858 | 4.09e5
Sp212 | DRSC22930 | – | – | 4743 | 3.98e5
CG10418 | DRSC09720 | – | – | 6808 | 5.03e5
CG11714 | DRSC09857 | – | – | 8103 | 3.10e5
CG14327 | DRSC14806 | – | – | 7825 | 4.35e5
CG32647 | DRSC19690 | – | – | 5407 | 5.09e5
CG32647 | DRSC19878 | – | – | 5416 | 5.30e5
Lcp65Aa | DRSC11209 | – | – | 7825 | 4.79e5
Cbs | DRSC20553 | – | – | 8952 | 5.31e5
Myo95E | DRSC15821 | – | – | 11083 | 3.49e5
byn | DRSC11332 | – | – | 6198 | 4.37e5
CG42539 (retired record) | DRSC13691 | – | – | 5047 | 3.10e5
CG42539 (retired record) | DRSC21639 | – | – | 8302 | 3.70e5
HPS1 | DRSC06195 | – | – | 9061 | 5.68e5
CkIIbeta2 | DRSC07361 | – | – | 5340 | 3.69e5
Mtl | DRSC16751 | – | – | 4447 | 4.17e5
VhaAC39-2 | DRSC15609 | – | – | 7243 | 3.27e5
CG8248 | DRSC07124 | – | – | 8454 | 3.72e5
porin | DRSC03594 | – | – | 5767 | 6.02e5
CG11396 | DRSC11654 | – | – | 8612 | 5.81e5
Ptp99A | DRSC13933 | – | – | 5464 | 3.76e5
Ptp99A | DRSC13939 | – | – | 4927 | 3.44e5
Ptp99A | DRSC14319 | – | – | 6307 | 3.77e5
Ptp99A | DRSC14320 | – | – | 6790 | 6.00e5
Ptp99A | DRSC16803 | – | – | 7167 | 5.02e5
Ptp99A | DRSC22125 | – | – | 8034 | 6.59e5
Ptp99A | DRSC22477 | – | – | 2595 | 2.86e5
Ptp99A | DRSC23033 | – | – | 4023 | 2.56e5
CG8675 | DRSC20117 | – | – | 7303 | 4.30e5
CG8187 | DRSC07099 | – | – | 8702 | 3.24e5
lobo | DRSC14662 | – | – | 7318 | 3.65e5
lobo | DRSC14663 | – | – | 6023 | 2.83e5
Cyfip | DRSC15679 | – | – | 7410 | 4.82e5
CG15864 | DRSC15122 | – | – | 7639 | 4.55e5
CG12825 | DRSC06174 | – | – | 3992 | 4.55e5
CG7582 | DRSC16261 | – | – | 7682 | 4.56e5
cactin | DRSC20576 | – | – | 5220 | 4.19e5
Act5C | DRSC17723 | – | – | 6539 | 5.09e5
CG3065 | DRSC04333 | – | – | 37643 | 1.28e6
nod | DRSC18900 | – | – | 4859 | 3.96e5
nod | DRSC20356 | – | – | 8391 | 5.08e5
spirit | DRSC18202 | – | – | 7174 | 5.20e5
CG16779 | DRSC15153 | – | – | 5628 | 3.33e5

A portion of the results above:
gene knocked down | amplicon | stable siRNA reporter change | miRNA reporter change | stable assay Renilla, run 1 (luminescence) | stable assay firefly, run 1 (luminescence)
VhaAC39-2 | DRSC15609 | – | – | 7243 | 3.27e5
CG8248 | DRSC07124 | – | – | 8454 | 3.72e5
porin | DRSC03594 | – | – | 5767 | 6.02e5
CG11396 | DRSC11654 | – | – | 8612 | 5.81e5
Ptp99A | DRSC13933 | – | – | 5464 | 3.76e5
Ptp99A | DRSC13939 | – | – | 4927 | 3.44e5
Ptp99A | DRSC14319 | – | – | 6307 | 3.77e5
Ptp99A | DRSC14320 | – | – | 6790 | 6.00e5
Ptp99A | DRSC16803 | – | – | 7167 | 5.02e5
Ptp99A | DRSC22125 | – | – | 8034 | 6.59e5

Further records:
gene knocked down | amplicon | stable siRNA reporter change | miRNA reporter change | stable assay Renilla, run 1 (luminescence) | stable assay firefly, run 1 (luminescence)
CG9270 | DRSC03182 | – | – | 9374 | 7.53e5
Cdc23 | DRSC02708 | – | – | 4.00e5 | 2.08e6
CG4520 | DRSC15590 | – | – | 6539 | 4.20e5
Cirl | DRSC21942 | – | – | 8359 | 3.44e5
Cirl | DRSC23235 | – | – | 3679 | 2.54e5
CG12691 | DRSC17880 | – | – | 4291 | 2.80e5
VhaM9.7-c | DRSC08204 | – | – | 7372 | 3.78e5
Cdk9 | DRSC04601 | – | – | 3351 | 1.44e5
Hmt4-20 | DRSC18482 | – | – | 8650 | 3.20e5
scaf | DRSC04849 | – | – | 54232 | 1.20e6
btd | DRSC18747 | – | – | 5698 | 4.15e5
CG11912 | DRSC00332 | – | – | 11100 | 5.17e5
Dh31 | DRSC02196 | – | – | 6320 | 4.04e5
CG42306 + Gint3 | DRSC06934 | – | – | 9723 | 3.78e5
RYBP | DRSC04117 | – | – | 7958 | 3.76e5
CG14610 + asRNA:CR42738 | DRSC12554 | – | – | 6086 | 3.42e5
ninaA | DRSC00830 | – | – | 48970 | 1.70e5
kibra | DRSC14533 | – | – | 7934 | 4.34e5
kibra | DRSC16257 | – | reporter ratio raised past the hit cutoff | 7850 | 2.99e5
kibra | DRSC23283 | – | – | 3196 | 2.32e5
CG32266 | DRSC08062 | – | – | 5702 | 4.05e5
rst | DRSC17243 | – | – | 7327 | 3.08e5
rst | DRSC18828 | – | – | 6120 | 3.24e5
CG18577 | DRSC15352 | – | – | 5668 | 4.75e5
Eaf6 | DRSC09901 | – | – | 6094 | 3.93e5
CG6928 | DRSC10749 | – | – | 6899 | 3.35e5
CG2983 | DRSC00558 | – | – | 8319 | 5.63e5
CG13390 | DRSC02261 | – | – | 7391 | 3.72e5
asRNA:CR42743 + CG34162 | DRSC01190 | – | – | 4563 | 3.67e5
Spt5 | DRSC07556 | reporter ratio lowered past the hit cutoff (active) | reporter ratio lowered past the hit cutoff | 5563 | 5.15e5
CG15641 | DRSC19677 | – | – | 5931 | 4.36e5
pad | DRSC14227 | reporter ratio lowered past the hit cutoff | – | 7291 | 7.97e5
CG9471 | DRSC16499 | – | – | 6122 | 3.14e5
CG32055 | DRSC10666 | – | – | 8227 | 5.24e5
GILT1 | DRSC16565 | – | – | 8194 | 4.86e5
CG5342 | DRSC15776 | – | – | 5379 | 3.23e5
Ggamma30A | DRSC02715 | – | – | 7720 | 4.31e5
Ggamma30A | DRSC03331 | – | – | 7634 | 4.18e5
ctrip | DRSC12242 | – | – | 7854 | 3.49e5
ctrip | DRSC12287 | – | – | 8642 | 5.23e5
ctrip | DRSC22449 | – | – | 4163 | 3.70e5
Nepl7 | DRSC02495 | – | – | 4643 | 4.18e5
ScpX | DRSC03430 | – | – | 7018 | 1.58e6
CG30325 | DRSC05685 | – | – | 5771 | 3.12e5
CG7365 | DRSC10824 | – | – | 11152 | 4.27e5
skl | DRSC10050 | – | – | 7462 | 3.80e5
CG33269 | DRSC10585 | – | – | 6254 | 2.74e5
btz | DRSC14566 | – | – | 8019 | 3.37e5
strat | DRSC03069 | – | – | 6795 | 4.36e5
Vps11 | DRSC11909 | – | – | 5819 | 3.89e5
Vps11 | DRSC21579 | – | – | 10006 | 5.68e5
CG7881 | DRSC04898 | – | – | 5930 | 3.10e5
ova | DRSC02879 | – | – | 45045 | 3.02e5
CG15725 | DRSC19691 | – | – | 6127 | 5.13e5
CG34459 | DRSC06973 | – | – | 6995 | 4.38e5
